From patent publication US11149009B2, “Fused piperidinyl bicyclic and related compounds as modulators of C5A receptor” (InflaRx GmbH, priority 2019, dated 2021)
pIC50: −log10 of the molar value. The structures given here were assigned with low confidence; some may be wrong.

Protein sequences, listed by entry. Tags and fused reporters are not part of them.
UniProt P21730, whole entry: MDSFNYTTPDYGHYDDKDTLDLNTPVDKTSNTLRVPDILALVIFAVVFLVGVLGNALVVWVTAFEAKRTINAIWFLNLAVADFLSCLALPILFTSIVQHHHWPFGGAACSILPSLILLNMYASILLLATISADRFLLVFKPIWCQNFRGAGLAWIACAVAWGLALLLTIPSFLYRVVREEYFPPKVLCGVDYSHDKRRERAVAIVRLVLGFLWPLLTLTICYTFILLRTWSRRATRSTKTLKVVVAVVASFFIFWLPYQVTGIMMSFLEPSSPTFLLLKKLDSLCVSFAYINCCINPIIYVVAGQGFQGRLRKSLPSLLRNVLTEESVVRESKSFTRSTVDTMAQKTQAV

Target: C5a receptor (Homo sapiens (Human), UniProt P21730)
Assay: Calcium mobilization assay (C5a-induced, U937 cells)
Details: inhibition of C5a-induced calcium mobilization
Method: U937 cells (ATCC® CRL-1593.2) were cultivated in RPMI1640 medium supplemented with 10% fetal bovine serum in a standard cell culture incubator. The day before conducting the assay, Dibutyryl-cAMP (0.5 mM working concentration) was added to cell cultures. Next day, cells were spun and resuspended in RPMI 1640 to a concentration of 40,000 cells per 50 μl. 40,000 cells were plated in one well in a 96 well poly-D-lysine coated plate for two hours to allow cells to adhere. After cell adherence, cytoplasmic calcium^++ indicator (FLIPR Calcium 6 Assay Kit, Molecular Devices) was added to each well and incubated for 75 minutes at 37° C. Test compounds were diluted using a robotic liquid handler. […] The cell culture plates were then incubated at room temperature for 30 minutes before being placed into Flexstation-3 plate reader (Molecular Devices). The Flexstation-3 was programmed to add recombinant C5a protein at various concentrations (1 nM to 10 nM) to cell culture plates and to monitor the change of fluorescence intensity, which correlates with cytoplasmic calcium concentration. […]
The half maximal inhibitory concentrations, i.e. IC50, were determined in biological assays, such as calcium mobilization assay. Using the calcium mobilization assay the following IC50 values were determined by the best dose-response curve fitting method. […]

## Cc1ccc(NC(=O)[C@H]2C[C@@H](C(F)(F)F)CN(C(=O)c3c(C)cccc3C)[C@H]2c2ccc(NC3CCCC3)cc2)cc1C(F)(F)F
  pIC50: > 8.00
